These are yes or no findings as the source states them, for the method shown. In cells and extracts the contact can be indirect. Some results given as binding are weak or reduced against the parent protein; the word gives no strength. Tags and fused reporters may be left off the sequences shown.
Columns and labels:
[1] = target: T1, FLAG-UBXN1 (full-length, 1-297) (human) (UniProt Q04323); test: co-IP
T1 sequence: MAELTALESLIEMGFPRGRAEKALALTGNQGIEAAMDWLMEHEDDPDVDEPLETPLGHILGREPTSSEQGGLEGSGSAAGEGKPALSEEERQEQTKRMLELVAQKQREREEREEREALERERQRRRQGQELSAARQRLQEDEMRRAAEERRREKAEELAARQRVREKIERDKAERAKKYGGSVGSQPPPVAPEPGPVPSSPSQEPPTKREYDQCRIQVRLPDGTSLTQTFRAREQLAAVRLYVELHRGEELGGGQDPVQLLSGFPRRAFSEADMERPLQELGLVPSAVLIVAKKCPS

Sequences of proteins named here, by UniProt entry; tags and fusion partners are left off.
UniProt Q13616: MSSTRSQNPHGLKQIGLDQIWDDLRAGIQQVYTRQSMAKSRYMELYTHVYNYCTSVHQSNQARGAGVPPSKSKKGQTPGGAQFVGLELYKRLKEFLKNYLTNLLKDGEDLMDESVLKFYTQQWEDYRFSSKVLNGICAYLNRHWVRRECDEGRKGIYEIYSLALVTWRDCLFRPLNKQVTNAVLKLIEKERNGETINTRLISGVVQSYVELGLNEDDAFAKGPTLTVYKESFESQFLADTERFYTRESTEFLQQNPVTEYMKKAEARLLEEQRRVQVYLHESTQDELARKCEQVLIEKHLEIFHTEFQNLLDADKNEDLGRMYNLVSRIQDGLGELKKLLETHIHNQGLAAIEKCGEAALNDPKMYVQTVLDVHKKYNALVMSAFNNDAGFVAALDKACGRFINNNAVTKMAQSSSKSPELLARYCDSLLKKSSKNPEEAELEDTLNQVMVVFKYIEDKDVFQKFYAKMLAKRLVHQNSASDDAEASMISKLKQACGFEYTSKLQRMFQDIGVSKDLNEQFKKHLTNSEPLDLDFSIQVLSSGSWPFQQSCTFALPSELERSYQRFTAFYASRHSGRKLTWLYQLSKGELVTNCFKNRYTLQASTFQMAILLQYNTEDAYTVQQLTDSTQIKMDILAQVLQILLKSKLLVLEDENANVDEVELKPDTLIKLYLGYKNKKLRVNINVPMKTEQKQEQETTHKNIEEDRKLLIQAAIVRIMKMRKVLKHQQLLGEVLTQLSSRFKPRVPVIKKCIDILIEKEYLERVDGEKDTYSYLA
UniProt P63208: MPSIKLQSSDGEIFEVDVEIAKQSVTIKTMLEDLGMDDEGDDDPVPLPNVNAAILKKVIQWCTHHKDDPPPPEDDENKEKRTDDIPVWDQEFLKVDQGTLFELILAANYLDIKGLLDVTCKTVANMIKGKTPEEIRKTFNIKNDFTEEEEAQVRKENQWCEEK

[2] = target: FLAG-Cul1 (full-length) (UniProt Q13616); test: co-IP

Molecule | binding [1] | binding [2]
Myc-Skp1 (from UniProt P63208 1-163) | no binding | 
Myc-UBXN1 (protein, UniProt Q04323 1-297) MAELTALESLIEMGFPRGRAEKALALTGNQGIEAAMDWLMEHEDDPDVDEPLETPLGHILGREPTSSEQGGLEGSGSAAGEGKPALSEEERQEQTKRMLELVAQKQREREEREEREALERERQRRRQGQELSAARQRLQEDEMRRAAEERRREKAEELAARQRVREKIERDKAERAKKYGGSVGSQPPPVAPEPGPVPSSPSQEPPTKREYDQCRIQVRLPDGTSLTQTFRAREQLAAVRLYVELHRGEELGGGQDPVQLLSGFPRRAFSEADMERPLQELGLVPSAVLIVAKKCPS |  | binds
